Reference: paper PMC7862700
The list shows a part of the results, in another mix than the full data. For some assays here: At the low end of the ranking the order means little. The list shows a part of the results. For some assays here: The exact form of the protein is not confirmed.

Amino acid sequences for entries named in this document (tags omitted). A change or cut given only in a name is not applied to a line headed by its entry.
UniProt P50549: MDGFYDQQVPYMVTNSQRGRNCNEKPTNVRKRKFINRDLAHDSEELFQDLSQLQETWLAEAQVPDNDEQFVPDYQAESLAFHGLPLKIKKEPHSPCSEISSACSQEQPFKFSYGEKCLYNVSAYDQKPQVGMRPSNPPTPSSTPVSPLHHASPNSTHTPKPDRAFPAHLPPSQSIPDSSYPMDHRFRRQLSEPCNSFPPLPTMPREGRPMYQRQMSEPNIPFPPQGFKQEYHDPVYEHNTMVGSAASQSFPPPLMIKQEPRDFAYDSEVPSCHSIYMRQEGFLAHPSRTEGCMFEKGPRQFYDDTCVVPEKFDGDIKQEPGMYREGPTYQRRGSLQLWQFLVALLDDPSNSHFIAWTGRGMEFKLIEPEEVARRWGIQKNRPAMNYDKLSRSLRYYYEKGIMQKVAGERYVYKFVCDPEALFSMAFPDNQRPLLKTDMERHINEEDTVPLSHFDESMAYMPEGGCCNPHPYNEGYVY

Assays:
Assay in all cases: DAPPL (digital affinity profiling via proximity ligation, sequencing)
Details in all cases: 10 mM Tris-HCl pH 7.5, 50 mM NaCl, 1 mM DTT, 4% glycerol, room temperature, 30 min; GST-TFs on glutathione beads, 16-mer random dsDNA library, 0.1% …; high values mean tight binding; double strand, one strand shown; scale: fold enrichment (6-mer frequency, TF over GST control)
ETV4 = biological target: T1, ETV4 (UniProt P43268)
T1 sequence: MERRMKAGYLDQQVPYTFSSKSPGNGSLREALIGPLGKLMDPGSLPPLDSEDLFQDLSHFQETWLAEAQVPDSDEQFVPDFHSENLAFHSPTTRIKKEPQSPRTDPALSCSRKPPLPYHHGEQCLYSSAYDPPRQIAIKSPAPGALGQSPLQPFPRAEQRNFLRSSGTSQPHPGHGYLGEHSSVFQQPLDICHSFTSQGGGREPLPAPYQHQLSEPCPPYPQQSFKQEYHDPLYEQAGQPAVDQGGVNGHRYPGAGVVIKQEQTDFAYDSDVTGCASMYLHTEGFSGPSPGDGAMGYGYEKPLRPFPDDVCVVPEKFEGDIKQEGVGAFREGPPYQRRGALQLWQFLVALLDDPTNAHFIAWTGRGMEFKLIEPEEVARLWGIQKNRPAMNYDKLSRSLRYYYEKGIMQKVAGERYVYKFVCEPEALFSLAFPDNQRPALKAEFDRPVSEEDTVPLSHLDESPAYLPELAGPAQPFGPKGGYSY

ETV1 = ETV1 (UniProt P50549)
ERF = biological target: T2, ERF (UniProt P50548)
T2 sequence: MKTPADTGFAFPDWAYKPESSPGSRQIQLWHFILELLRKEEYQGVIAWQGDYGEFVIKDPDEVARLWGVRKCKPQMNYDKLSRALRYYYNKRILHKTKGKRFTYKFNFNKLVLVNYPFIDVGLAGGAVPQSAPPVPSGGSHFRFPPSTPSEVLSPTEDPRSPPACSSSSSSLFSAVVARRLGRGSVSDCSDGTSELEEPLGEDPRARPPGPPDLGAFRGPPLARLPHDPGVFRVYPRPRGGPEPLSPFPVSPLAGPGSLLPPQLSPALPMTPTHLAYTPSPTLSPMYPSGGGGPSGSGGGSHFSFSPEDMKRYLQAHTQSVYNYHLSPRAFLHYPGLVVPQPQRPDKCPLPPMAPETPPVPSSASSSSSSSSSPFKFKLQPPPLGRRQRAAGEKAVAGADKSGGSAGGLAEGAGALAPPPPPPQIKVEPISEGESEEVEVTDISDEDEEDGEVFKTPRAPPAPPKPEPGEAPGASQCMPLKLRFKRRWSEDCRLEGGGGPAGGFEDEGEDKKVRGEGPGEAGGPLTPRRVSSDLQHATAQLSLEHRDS

Row | Sequence | binding signal (ETV4) | binding signal (ETV1) | binding signal (ERF)
1 | ACCTCT | 1.27 | 1.3 | –
2 | CACCTG | 1.08 | 0.947 | –
3 | TGATAT | 1.06 | 0.999 | –
4 | GCGGAA | 1.3 | – | 1.19
5 | GTTCAA | 1.07 | – | 1.14
6 | GCAAAT | 1.06 | – | 1.11
7 | TTTGGG | 1.26 | – | 1.39
